Literature values as cited in patent publication US20250195486A1 (Closed Loop Medicine Ltd., priority 2023, published 2025).
At least one compound was matched to its structure with a doubt left.

Assays:
[1] = system: patients with moderate-to-high-risk atrial fibrillation; conditions: two once-daily regimens vs warfarin dose-adjusted to INR 2.0 to 3.0; 21,105 patients
[2] = system: patients with NVAF; conditions: patient with normal renal function, within 1 year

SMILES: CN1CCc2nc(C(=O)N[C@@H]3C[C@@H](C(=O)N(C)C)CC[C@@H]3NC(=O)C(=O)Nc3ccc(Cl)cn3)sc2C1 [edoxaban]
- reduction of stroke or systemic embolic events and major bleeding vs warfarin [1]: superior to warfarin
- trough edoxaban level required to reduce the risk of a stroke or SEE below 1% [2]: > 20 ng/mL
- trough edoxaban level required to reduce the risk of a stroke or SEE below 1.25% [2]: > 10 ng/mL
